As a reminder, the AC50 is the midpoint of the concentration-response curve, whichever way the signal moves.

SMILES strings stand for the structures. “And” between values parts separate entries of the source, which are not always exact repeats. Equal entries are not always repeated. The list shows a part of the results. The main result of the screen is listed elsewhere. These columns were measured beside it and carry no call. Most of these compounds were active or inconclusive in the main read-out, so they are no random draw. Words in brackets tell the shape of the fitted curve; partial curves, single points and poor fits give uncertain potencies.

Our source for the AC50 values is PubChem BioAssay AID493014 (National Center for Advancing Translational Sciences (NCATS), 2011).

The nature of the assay: qHTS Assay to Find Inhibitors of Chronic Active B-Cell Receptor Signaling. As to conditions: ABC-DLBCL IkBa-CBG/CBR reporter, luminescence ratio (green luciferase fused to IkBa over red control in TMD8 lymphoma cells), 4 h. The gist of the method:
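Cell line TMD8 (human ABC DLBCL), stably expressing tet-inducible CBG68-IkBa fusion and CBR; IMDM/0.5% FBS; cpd up to 46 uM; dox induction, 4 h, 37C/5% CO2; dual luminescence; green/red ratio; MG132 control.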

[1] abbreviates: measured here: CBR red luminescence, cell number.
[2] abbreviates: measured here: IkBa-CBG green luminescence.

On to `COC(=O)c1c(-c2ccc(F)cc2)csc1NC(=O)c1ccco1`, for which, under setting [1], the AC50 is 22.4 µM [rising, single point].

Regarding `Cc1nc2nc(-c3ccc(Cl)cc3)[nH]n2c(=O)c1C`, the AC50 under setting [1] is 2.51 µM [falling, full curve, poor fit].

On to `O=C(Cc1cccc2ccccc12)Nc1nc2ccccc2[nH]1`, for which the AC50 under setting [1] is 0.00461 µM [rising, full curve, poor fit]. On the same count and under the same terms, then `O=C(N/N=C/c1ccccn1)C(=O)N1CCCCCC1`, with 22.4 µM [rising, partial curve, poor fit]; and `Cc1cc(OCC(=O)NNC(=S)NC(=O)c2ccc(Br)o2)ccc1Cl`, with 3.16 µM [rising, full curve, poor fit]. For the compound `O=C(O)CCc1ccc(-c2ccc(Cl)cc2)n1NC(=O)c1ccc(O)cc1`, the AC50 under setting [1] was 12.6 µM [falling, single point]. The same measure, in the same setting: then `CCC(=O)N1CCc2nc(-c3ccccc3)sc2C1`, with 15.8 µM [rising, partial curve, poor fit]. In the case of `O=C(C#Cc1ccccc1)c1ccco1`, the AC50 runs as follows: under setting [1], 5.62 µM [rising, single point]; under setting [2], 6.31 µM [falling, single point].

In the case of `CCCc1nnc(NC(=O)CCC(=O)N2CCC(Cc3ccccc3)CC2)s1`, under setting [1], the AC50 was 35.5 µM [rising, single point]. With `O=C1CCC/C1=C/Nc1ccc2c(c1)OCO2`, the AC50 under setting [1] is 20.6 µM [falling, single point]. On the same count and under the same terms, then `COc1ccc(C(CCNC(C)c2ccccc2)C(C)C)cc1` (stereo not given), with 22.4 µM [falling, single point].

Turning to `O=C(CN1CCN(c2cccc(Cl)c2)CC1)Nc1nccs1`, under setting [2], the AC50 was 15.8 µM [falling, partial curve, poor fit].

For `CCC(CC)c1nc(NCCC(=O)O)c2ccccc2n1`, the AC50 under setting [1] was 6.31 µM [rising, single point]. In the case of `CC(NC(=O)Cn1nc(C(F)(F)F)c2c1CCC2)c1ccccc1` (stereo not given), the AC50 under setting [1] was 0.0517 µM [falling, full curve, poor fit]. Turning to `O=[N+]([O-])c1ccc(Nc2nc(NC3CCCCC3)nc(N3CCCC3)n2)cc1`, the AC50 under setting [1] was 2 µM [rising, partial curve, poor fit]. The same measure, in the same setting: the result for `C/C=C/C=C\C(=O)Nc1cccc(C2=NOC3(C2)C[C@@H](C(N)=O)N(C(=O)c2cc([N+](=O)[O-])cc([N+](=O)[O-])c2)C3)c1` (stereo not given in full) reads 10 µM [falling, partial curve].

With `Nc1ccc(N2CCOCC2)c(Cl)c1`, the AC50 under setting [1] was 14.6 µM [rising, partial curve, poor fit].

In the case of `O=[N+]([O-])c1ccc(N=Cc2ccc(Br)c([N+](=O)[O-])c2)cc1`, the AC50 under setting [1] was 25.9 µM [falling, single point] and the AC50 under setting [2] is 20.6 µM [falling, single point].

As to `Cc1ccccc1NC(=O)/C=C/c1cccc(C(F)(F)F)c1`, the AC50 under setting [1] was 10 µM [falling, partial curve, poor fit]. The same measure, in the same setting: then `CN(C)c1oc(-c2ccc(OCc3ccccc3)cc2)nc1C#N`, with 2.59 µM [rising, full curve, poor fit]. The same measure, in the same setting: then `COc1cc(C(CC(=O)Nc2ccc(Cl)cn2)N2Cc3ccccc3C2=O)cc(OC)c1OC` (stereo not given), with 0.1 µM [rising, full curve, poor fit]; and `O=C(COC(=O)Cn1cnc2ccccc21)Nc1cccc2c1C(=O)c1ccccc1C2=O`, with 11.6 µM [falling, partial curve, poor fit].

Regarding `CCc1ccc2oc(=O)cc(CN3CCCCC3)c2c1`, the AC50 under setting [1] was 3.55 µM [rising, single point]. Same read-out and setting: the result for `NC1=Nc2cccc3cccc1c23` reads 11.2 µM [falling, partial curve]; that for `Cc1nn(Cc2cccc(C(=O)NC34CC5CC(CC(C5)C3)C4)c2)c(C)c1Br`, 29.1 µM [falling, single point]. Take `Cc1ccc(NC(=O)Cn2c(=O)oc3ccccc32)cc1Cl`: the half-maximal activity concentration (AC50) under setting [1] is 12.6 µM [falling, partial curve, poor fit] and 2.24 µM [falling, partial curve, poor fit]. For the compound `CCn1c(=O)n(CC(=O)NC2CCCC(C)C2C)c(=O)c2ccccc21` (stereo not given), the AC50 under setting [1] was 2.82 µM [falling, partial curve, poor fit]. Still for that read-out and setting: the result for `CCN(N=Nc1cccc([N+](=O)[O-])c1)c1cccc([N+](=O)[O-])c1` reads 0.326 µM [rising, full curve, poor fit]; that for `CC(C)(C)OC(=O)[C@H](Cc1ccccc1)NC(=O)c1nc[nH]c1C(=O)NC1CCN(C(=O)OC(C)(C)C)CC1`, 35.5 µM [falling, single point]. `O=C(c1cnn2c(C(F)F)cc(-c3ccccc3)nc12)N1CCCCC1c1cccnc1` (stereo not given): the half-maximal activity concentration (AC50) under setting [1] was 28.2 µM [rising, partial curve, poor fit].

Take `CCOc1cccc(-c2nnc(SCC(=O)Nc3cc(C)ccc3OC)n2N)c1`: the AC50 under setting [1] was 35.5 µM [falling, single point]. On to `CCCCC(=O)NC(=S)NNC(=O)c1ccc(Cl)cc1Cl`, for which the AC50 under setting [1] was 14.1 µM [rising, single point].

Consider `COc1ccccc1-n1c([S-])c(C(=O)Nc2ccccc2C(F)(F)F)[n+]2ccc(C(=O)NCCO)cc12`, for which, under setting [1], the AC50 was 8.91 µM [falling, partial curve, poor fit].

On to `COc1ccc(C(=O)NCCCc2nc3ccccc3n2Cc2cc(C)ccc2C)cc1OC`, for which, under setting [1], the AC50 is 0.651 µM [rising, full curve, poor fit].

In the case of `CCn1nc(C)c(CN2CCC(C(=O)Nc3cccc(-c4cccc(F)c4)c3)CC2)c1C`, the AC50 under setting [1] is 22.4 µM [falling, single point]. With `O=C(CSc1nncn1-c1ccccc1)Nc1c(F)cccc1F`, the half-maximal activity concentration (AC50) under setting [1] was 35.5 µM [falling, single point].

Regarding `Oc1ccccc1-c1n[nH]c(=S)n1Cc1ccccc1`, the AC50 under setting [1] was 2.82 µM [rising, partial curve, poor fit]. Still for that read-out and setting: then `CCC1CCCCN1C(=O)COC(=O)c1n[nH]c2ccccc12` (stereo not given), with 16.4 µM [falling, partial curve, poor fit]; and `CCOC(=O)c1c(C)[nH]c(C)c1C(=O)CSc1nc2ccccc2c(=O)n1-c1ccccc1C`, with 3.66 µM [rising, single point].

Regarding `COc1ccc(NC(=O)c2ccccc2NC(=O)C2CCCO2)cc1` (stereo not given), the AC50 under setting [1] is 18.4 µM [falling, single point].

For `COc1ccc(C(=O)Nc2nc3ccc(S(C)(=O)=O)cc3s2)cc1OC`, the AC50 under setting [1] is 7.94 µM [rising, partial curve].

Turning to `COc1ccccc1-c1cc(C(=O)NCc2ccc(F)cc2)no1`, the concentration at half-maximal activity (AC50) under setting [1] is 5.62 µM [falling, full curve, poor fit]. As for `COc1ccc(NN=Nc2ccc([N+](=O)[O-])cc2)cc1`, the AC50 under setting [1] is 1.26 µM [rising, full curve]. `NC(=O)C(c1ccc(Cl)cc1)c1ccc(Sc2ccc(Cl)cc2)nn1` (stereo not given): the AC50 under setting [1] is 18.4 µM [falling, partial curve, poor fit]. Same read-out and setting: the result for `CC1=NN(c2cccc([N+](=O)[O-])c2)C(=O)C1` reads 0.0891 µM [falling, full curve, poor fit].

As to `Cc1occc1C(=O)N/N=C/c1ccc2c(c1)OCO2`, under setting [1], the AC50 is 3.55 µM [falling, partial curve]. As to `COc1ccc(N2C(=O)CC(Nc3ccc(F)cc3)C2=O)c([N+](=O)[O-])c1` (stereo not given), the AC50 under setting [1] was 35.5 µM [falling, single point]. Same read-out and setting: then `COc1ccccc1CNCc1cc(Br)ccc1OC`, with 12.6 µM [falling, single point]; and `CCOC(=O)Cc1csc(NC(=O)/C=C/c2cccc(Br)c2)n1`, with 8.91 µM [falling, partial curve, poor fit].

For `O=C(Nc1cccc(Cl)c1)c1cc(S(=O)(=O)NCCc2ccc(Cl)cc2)ccc1F`, the AC50 is, setting by setting: under setting [1], 29.1 µM [falling, single point]; under setting [2], 16.4 µM [rising, partial curve, poor fit]. Consider `c1ccc2c(c1)ccc1nnc(-c3ccc4c(c3)OCO4)n12`, for which the AC50 under setting [1] is 2.59 µM [rising, full curve]. Same read-out and setting: then `O=C(O)C1CCCN(S(=O)(=O)c2ccc3c(c2)OCCO3)C1` (stereo not given), with 35.5 µM [rising, single point].

Consider `CCOC(=O)c1[nH]c(C)c(/C(O)=C2\C(=O)C(=O)N(CCN(C)C)C2c2cccc(OC)c2OC)c1C` (stereo not given), for which, under setting [1], the AC50 is 10 µM [rising, partial curve, poor fit]. On the same count and under the same terms, then `COc1ccc(Cl)cc1NC(=O)CN(C)C(=O)c1n[nH]c2ccccc12`, with 23.1 µM [falling, single point]; and `Nc1ccc(C(=O)N/N=C/c2cn(Cc3cccc(F)c3)c3ccccc23)cc1`, with 12.6 µM [falling, partial curve]. Still for that read-out and setting: then `Cc1ccc(C(=O)NCCOc2cccc3cccnc23)cc1Cl`, with 2.82 µM [rising, full curve, poor fit]; and `CCOC(=O)C1CCCN(C(=O)c2cc(-c3ccccc3)on2)C1` (stereo not given), with 6.51 µM [rising, single point]; and `CCOc1ccc(OCC)c(NC(=O)CN(C)S(=O)(=O)c2cnc[nH]2)c1`, with 5.62 µM [falling, single point]. Still for that read-out and setting: the result for `COc1ccc(OC)c2sc(NC(=O)CCSc3ccccc3)nc12` reads 0.58 µM [falling, full curve]. With `COc1ccccc1/C=C/C(=O)N1CCN(S(=O)(=O)c2cc(C)ccc2C)CC1`, under setting [1], the AC50 is 16.4 µM [falling, single point]. On the same count and under the same terms, then `Cc1ccc(-n2c(O)c(/C=C3/C(c4ccccc4)=Nc4ccccc43)c(=O)[nH]c2=O)cc1`, with 29.1 µM [falling, single point].

With `O=C(O)Cn1c(=O)cnc2ccccc21`, the AC50 under setting [1] was 29.1 µM [rising, single point].
